Laboratory results taken from US6518041B1, “Hormone response element that binds an androgen and progesterone receptor” (Schering Aktiengesellschaft, priority 1998, dated 2003).
“Also recorded” adds a separate entry of the source. At least one compound was matched to its structure with a doubt left.

What was measured:
Format in all cases: cell-based
progesterone receptor = molecular target: T1, progesterone receptor (Homo sapiens, UniProt P06401); test: ARE17 luciferase reporter in PC-3/AR cells cotransfected with progesterone receptor expression vector
T1 construct: expressed in transfected cells; host or cells: PC-3/AR cells cotransfected with a progesterone receptor expression vector
T1 sequence (P06401 1-933): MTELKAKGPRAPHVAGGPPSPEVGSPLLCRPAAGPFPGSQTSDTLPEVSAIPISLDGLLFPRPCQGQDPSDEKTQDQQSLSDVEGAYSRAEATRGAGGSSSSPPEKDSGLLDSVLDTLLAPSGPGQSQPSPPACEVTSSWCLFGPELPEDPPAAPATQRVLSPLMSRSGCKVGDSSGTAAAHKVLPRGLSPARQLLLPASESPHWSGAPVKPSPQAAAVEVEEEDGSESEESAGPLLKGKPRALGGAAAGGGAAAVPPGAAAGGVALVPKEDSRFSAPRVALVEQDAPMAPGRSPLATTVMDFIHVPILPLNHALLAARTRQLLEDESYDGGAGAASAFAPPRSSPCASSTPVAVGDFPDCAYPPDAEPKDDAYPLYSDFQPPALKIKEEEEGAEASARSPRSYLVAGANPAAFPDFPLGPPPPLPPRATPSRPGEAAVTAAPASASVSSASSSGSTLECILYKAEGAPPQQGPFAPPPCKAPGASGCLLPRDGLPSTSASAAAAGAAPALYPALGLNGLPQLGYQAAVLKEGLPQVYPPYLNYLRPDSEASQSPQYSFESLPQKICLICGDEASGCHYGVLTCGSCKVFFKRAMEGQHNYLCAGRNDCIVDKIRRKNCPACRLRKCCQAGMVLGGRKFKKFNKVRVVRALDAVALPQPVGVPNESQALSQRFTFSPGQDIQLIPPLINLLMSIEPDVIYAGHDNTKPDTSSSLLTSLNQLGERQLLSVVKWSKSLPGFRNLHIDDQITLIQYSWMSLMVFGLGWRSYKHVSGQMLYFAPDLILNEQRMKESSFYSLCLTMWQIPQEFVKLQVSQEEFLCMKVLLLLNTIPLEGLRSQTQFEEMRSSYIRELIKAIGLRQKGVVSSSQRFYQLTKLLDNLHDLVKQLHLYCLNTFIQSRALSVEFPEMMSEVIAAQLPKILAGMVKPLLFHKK

androgen receptor [1] = molecular target: T2, androgen receptor (Homo sapiens, UniProt P10275); test: ARE17 luciferase reporter test system in PC-3/AR cells; conditions: geldanamycin 125 ng/ml, 4 copies, R1881
T2 construct: expressed in transfected cells; host or cells: PC-3 cells stably transformed with an androgen receptor expression vector (PC-3/AR)
T2 sequence (P10275 1-920): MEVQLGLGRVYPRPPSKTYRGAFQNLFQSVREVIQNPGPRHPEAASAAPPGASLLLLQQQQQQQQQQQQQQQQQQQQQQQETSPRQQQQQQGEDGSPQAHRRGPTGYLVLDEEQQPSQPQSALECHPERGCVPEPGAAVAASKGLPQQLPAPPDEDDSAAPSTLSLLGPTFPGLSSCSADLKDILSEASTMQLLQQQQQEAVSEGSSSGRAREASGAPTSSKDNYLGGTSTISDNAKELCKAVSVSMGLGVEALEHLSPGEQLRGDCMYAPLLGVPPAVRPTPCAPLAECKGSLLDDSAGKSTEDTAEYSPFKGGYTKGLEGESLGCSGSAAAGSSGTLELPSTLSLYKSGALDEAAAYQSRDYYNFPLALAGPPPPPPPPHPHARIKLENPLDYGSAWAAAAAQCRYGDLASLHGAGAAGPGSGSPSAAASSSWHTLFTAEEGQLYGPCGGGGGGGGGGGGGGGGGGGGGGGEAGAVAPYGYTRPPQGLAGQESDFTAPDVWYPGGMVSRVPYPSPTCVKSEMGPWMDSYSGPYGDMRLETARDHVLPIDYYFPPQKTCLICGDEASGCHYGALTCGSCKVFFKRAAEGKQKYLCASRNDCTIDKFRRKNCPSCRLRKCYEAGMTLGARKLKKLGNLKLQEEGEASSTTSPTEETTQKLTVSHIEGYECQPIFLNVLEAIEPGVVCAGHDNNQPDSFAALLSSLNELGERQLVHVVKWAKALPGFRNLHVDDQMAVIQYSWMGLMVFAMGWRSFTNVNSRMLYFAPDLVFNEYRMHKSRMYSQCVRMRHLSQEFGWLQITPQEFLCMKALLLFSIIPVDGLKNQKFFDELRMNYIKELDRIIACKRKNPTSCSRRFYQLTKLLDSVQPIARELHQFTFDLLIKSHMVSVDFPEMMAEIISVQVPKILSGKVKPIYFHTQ
Description: Preferred is the use of the luciferase reporter gene and of PC-3 cells that have been transformed in advance in a stable manner with an expression vector for the androgen receptor (PC-3/AR cells) or in a transient parallel manner. In addition, the use of the TK minimal promoter is preferred. […] A progestin is a synthetic progesterone analog.
(§1) Test systems were compared that contained either an HRE according to the invention that corresponds to Seq. ID No. 1 (ARE17) or the consensus-HRE with the sequence (SEQ ID NO: 5) 5′-[…]-3′ (ARE). All other components were respectively the same. Copies of the ARE17 were introduced upstream from the TK minimal promoter and the luciferase gene in the pGL3-basic vector (FIG. 1). PC-3/AR cells, which already express the androgen receptor in a stable manner, were saturated in RPMI1640/10% cFS/L-glutamine for 18-24 hours and then transformed for five hours with 100 ng of reporter plasmid and the Fu-gene transfection reagent (Boehringer Mannheim). Then, the medium was replaced by RPM1640/5% cFCS/L-glutamine, and the activity of the reporter gene measured 42 hours later.
Four copies of the elements were introduced upstream from the TK minimal promoter and the luciferase gene in the pGL3-basic vector (FIG. 1) and transformed in the PC-3/AR-cells, which already express the androgen receptor in a stable manner, as described above. […]

androgen receptor [2] = molecular target: T2, androgen receptor; test: consensus-HRE (ARE) luciferase reporter test system in PC-3/AR cells; conditions: geldanamycin 125 ng/ml, 4 copies, R1881
Description: as §1
Four copies of the elements were introduced upstream from the TK minimal promoter and the luciferase gene in the pGL3-basic vector (FIG. 1) and transformed in the PC-3/AR-cells, which already express the androgen receptor in a stable manner, as described above. The stimulation was carried out with the synthetic androgen R1881 (10^−9M or 10^−7M final concentration).

Structure (SMILES)	induction of the luciferase activity (progesterone receptor; 4 copies of ARE17, progesterone receptor expression vector, PC-3/AR cells) [fold]	stimulation of ARE17 (in words) (progesterone receptor; levonorgestrel 10^-6 M, progesterone receptor cotransfection)	effect on the androgen stimulation of ARE17 (androgen receptor [1])	effect on the androgen stimulation of the consensus-HRE (androgen receptor [2])
C#C[C@]1(O)CC[C@H]2[C@@H]3CCC4=CC(=O)CC[C@@H]4[C@H]3CC[C@@]21CC [levonorgestrel]	52.2	stimulated very greatly		
COC1=C2C[C@@H](C)C[C@H](OC)[C@H](O)[C@@H](C)/C=C(\C)[C@H](OC(N)=O)[C@@H](OC)/C=C\C=C(/C)C(=O)NC(=CC1=O)C2=O [geldanamycin]			inhibits the androgen stimulation; also recorded: inhibited	increases
